From US20060024667A1
Results are given in words; binding and its absence hold for the method and conditions named. Some results given as binding are weak or reduced against the parent protein; the word gives no strength.

Chains of the proteins cited; added tags and fusions are not shown. Residues count along the entry.
UniProt P05067, residues 672-713: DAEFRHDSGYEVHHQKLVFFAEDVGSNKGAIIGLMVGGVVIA

Molecular target: human amyloid-beta peptide (Aβ42), wild-type (human) (UniProt P05067)
Test: phage ELISA, Aβ42-coated plate, anti-M13 HRP

B1: mouse anti-Aβ42 scFv clone AM 3.26 (phage-displayed) (scFv)
scFv: QVKLQQWGTEVVKPGASVKLSCKASGYIFTSYDIDWVRQTPEQGLEWIGWIFPGEGSTEYNEKFKGRATLSVDKSSSTAYMELTRLTSEDSAVYFCARGDYYRRYFDLWGQGTTVTVSSCGGGSGGGGSGGGGSDIELTQSPAIMSASPGERVTMTCSASSSIRYIYWYQQKPGSSPRLLIYDTSNVAPGVPFRFSGSGSGTSYSLTINRMEAEDAATYYCQEWSGYPYTFGGGTKLELKR
binding: binds
